± gives the standard deviation. The entries are a selection whose mix differs from that of the whole data set. Many entries were measured with a wide error. The list shows a part of the results.
Legend:
[1] = tested on: MILI (PIWIL2) piRISC loaded with L1MC piRNA (26 nt); assay: pre-steady-state target cleavage rate (min^-1); higher = faster piRNA-guided slicing of the target; conditions: guide: L1MC piRNA 5'p-UAACUAAAUACUAUGCAAGCUGUAGG
Method in brief: (§1)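 Cleave-'n-Seq: 1 nM active affinity-purified piRISC with one synthetic guide and 0.1 nM transcribed, DNA-blocked target RNA library were mixed, with or without 500 nM GTSF1 partner protein, in HEPES–potassium acetate buffer at 33 °C for 0–8 or 0–960 min. Uncleaved targets were sequenced and normalised to depth and to weakly complementary targets, three trials were pooled, and k3 was capped at 0.0001 min^-1. The pre-steady-state cleavage rate was fitted […].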

[2] = tested on: EfPiwi piRISC loaded with L1MC piRNA (26 nt); assay: pre-steady-state target cleavage rate (min^-1); guide: L1MC piRNA 5'p-UAACUAAAUACUAUGCAAGCUGUAGG; MIWI and MILI are mouse PIWI proteins and EfPiwi is from a freshwater sponge; tags in brackets are library labels; higher = faster piRNA-guided slicing of the target
Method in brief: as §1

[3] = auxiliary factor: 500 nM mouse GTSF1
[4] = auxiliary factor: 500 nM Ephydatia muelleri Gtsf1
[5] = auxiliary factor: none (no GTSF1)
[6] = auxiliary factor: none (no Gtsf1)

Sequence	pre-steady-state target cleavage rate [1, 3]	pre-steady-state target cleavage rate [2, 4]	pre-steady-state target cleavage rate [1, 5]	pre-steady-state target cleavage rate [2, 6]
UCCUCCUACGCUUGCAUAGUAUUUAGUUA	0.301 ± 0.013	0.0821 ± 0.021	–	–
UCCUGGUACAGCUAGCAUAGUAUUUAGAUA	–	0.00618 ± 0.0029	0.0026 ± 0.0033	–
UCCUGCUACAGCUUGCAUAGUAUUAACUUA	–	0.00397 ± 0.0027	0.00208 ± 0.0034	–
UCCUCCUACUGCUUCCAUAGUAUUUAGUUA	–	0.0043 ± 0.0018	0.00149 ± 0.0032	–
UCCUGGAUGUCGAACCAUAGUAUUAAGUUA	–	< 0.0001	0.000153 ± 0.022	–
UCCUGGAUCAGCUUGCAUACUAUAUAGUUA	–	0.00161 ± 0.0033	0.00163 ± 0.0035	–
UCCUGGAUGUGCUUGCAUAGUUAUUAGAAA	–	0.000309 ± 0.013	0.000958 ± 0.0051	–
UCCUGCUACUGCAUGCAUAGUAUUUAGUUA	0.282 ± 0.025	0.00847 ± 0.0024	–	–
UCCUGGAACAGCUUGCUUAGUAUUUAGAUA	–	0.00448 ± 0.0027	0.00191 ± 0.0029	–
UCCUGGUACAGGUUGCAUAGUAUUAAGUUA	0.326 ± 0.072	–	–	0.000497 ± 0.021
UCCUGCUACAGCUUGCUUAGUAUUUACUUA	–	0.00194 ± 0.0036	0.00178 ± 0.0038	–
UCCUGCUACAGCUUGCAUAGUAUUUAGUAA	–	0.00553 ± 0.0022	0.00285 ± 0.003	–
UCCUGCUACAGCUUGCAUAGUAUUAUGUUA	–	0.00406 ± 0.002	0.0023 ± 0.0041	–
UCCUGGAUGAGCUUGCAUACUAUUUUGUUA	–	0.00137 ± 0.0039	0.000814 ± 0.0076	–
UCCUGGAUGUGCUUGCAAAGUAUUUAGAUA	–	0.00182 ± 0.0047	0.00153 ± 0.0046	–
UCCUGGAACAGCUUGCAUAGUAUUUACAUA	–	0.00316 ± 0.0025	0.00143 ± 0.0053	–
UCCUCCUACAGCUUGCAUAGUAUAUAGUAA	–	–	0.0021 ± 0.003	0.000383 ± 0.013
UCCUGCUUGUGCUUGCAUAGUAUUUAGAAA	–	0.00373 ± 0.0022	0.00093 ± 0.0051	–
UCCUGGAUGUGCUUGCUUAGUAUUUACUUA	–	0.000292 ± 0.014	0.00295 ± 0.0031	–
UCCUGGAACAGCUUCCAUAGUAUUUUCAAA	–	0.00139 ± 0.0025	0.00035 ± 0.014	–

Record cards, from the list above:
UCCUGGUACAGCUAGCAUAGUAUUUAGAUA is entered as pre-steady-state target cleavage rate [2, 4]: 0.00618 ± 0.0029; pre-steady-state target cleavage rate [1, 5]: 0.0026 ± 0.0033
UCCUGGAUGUCGAACCAUAGUAUUAAGUUA is entered as pre-steady-state target cleavage rate [2, 4]: < 0.0001; pre-steady-state target cleavage rate [1, 5]: 0.000153 ± 0.022

Reference: the supplement of paper PMC10338343
